doi:10.1101/2023.08.12.553084
Like-named read-outs stand apart in the source and are kept apart here. These are yes or no findings as the source states them, for the method shown. In cells and extracts the contact can be indirect. Some binding calls cover weakened binding; strength is not graded here.

By UniProt entry, the sequences of proteins in these tests, tags left out. Residues count along the entry.
UniProt Q9BZS1, residues 1-417: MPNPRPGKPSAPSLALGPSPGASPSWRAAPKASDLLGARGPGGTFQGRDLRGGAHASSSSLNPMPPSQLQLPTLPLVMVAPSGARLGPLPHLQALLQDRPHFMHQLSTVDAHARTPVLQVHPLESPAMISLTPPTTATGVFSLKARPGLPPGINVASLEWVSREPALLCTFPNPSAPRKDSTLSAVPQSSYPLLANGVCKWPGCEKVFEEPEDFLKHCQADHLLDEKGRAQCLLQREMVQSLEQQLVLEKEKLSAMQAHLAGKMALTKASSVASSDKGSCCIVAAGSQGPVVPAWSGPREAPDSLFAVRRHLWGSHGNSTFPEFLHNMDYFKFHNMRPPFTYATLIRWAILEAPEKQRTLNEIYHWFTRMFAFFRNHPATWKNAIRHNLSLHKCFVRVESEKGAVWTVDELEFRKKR
UniProt Q13422: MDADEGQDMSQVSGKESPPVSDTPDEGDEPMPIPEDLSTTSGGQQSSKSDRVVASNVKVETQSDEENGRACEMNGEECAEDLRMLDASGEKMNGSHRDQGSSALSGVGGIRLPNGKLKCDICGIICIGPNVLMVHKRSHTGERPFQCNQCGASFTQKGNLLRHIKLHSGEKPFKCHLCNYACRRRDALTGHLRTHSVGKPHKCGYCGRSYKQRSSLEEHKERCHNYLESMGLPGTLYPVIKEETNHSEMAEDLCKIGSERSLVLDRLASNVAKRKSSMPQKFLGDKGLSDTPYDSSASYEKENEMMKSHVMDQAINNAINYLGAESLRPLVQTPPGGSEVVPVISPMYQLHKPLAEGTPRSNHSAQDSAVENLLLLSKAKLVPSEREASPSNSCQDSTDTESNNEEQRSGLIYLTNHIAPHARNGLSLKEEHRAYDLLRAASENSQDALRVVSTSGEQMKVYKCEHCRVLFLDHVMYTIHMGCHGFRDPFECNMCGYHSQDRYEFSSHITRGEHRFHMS
UniProt P81183: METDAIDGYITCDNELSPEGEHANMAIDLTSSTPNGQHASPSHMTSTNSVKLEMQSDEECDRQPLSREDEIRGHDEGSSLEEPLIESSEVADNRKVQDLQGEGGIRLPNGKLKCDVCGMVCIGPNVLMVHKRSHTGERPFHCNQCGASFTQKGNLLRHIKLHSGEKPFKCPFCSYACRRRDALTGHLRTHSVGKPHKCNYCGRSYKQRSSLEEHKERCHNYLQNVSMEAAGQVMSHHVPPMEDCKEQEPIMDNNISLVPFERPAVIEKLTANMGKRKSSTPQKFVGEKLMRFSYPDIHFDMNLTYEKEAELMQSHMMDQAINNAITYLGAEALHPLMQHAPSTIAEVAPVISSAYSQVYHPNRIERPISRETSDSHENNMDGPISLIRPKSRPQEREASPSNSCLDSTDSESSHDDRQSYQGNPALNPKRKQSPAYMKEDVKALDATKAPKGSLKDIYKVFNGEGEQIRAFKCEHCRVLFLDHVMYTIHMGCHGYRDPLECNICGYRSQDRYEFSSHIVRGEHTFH

Assays:
Experiment in all cases: co-IP
[1] = target: FOXP3 (endogenous, human Treg cells) (human (endogenous in Treg cells)) (UniProt Q9BZS1)
[2] = target: T1, Foxp3 (endogenous, mouse Treg cells) (mouse (endogenous in Treg cells)) (UniProt Q99JB6)
T1 sequence: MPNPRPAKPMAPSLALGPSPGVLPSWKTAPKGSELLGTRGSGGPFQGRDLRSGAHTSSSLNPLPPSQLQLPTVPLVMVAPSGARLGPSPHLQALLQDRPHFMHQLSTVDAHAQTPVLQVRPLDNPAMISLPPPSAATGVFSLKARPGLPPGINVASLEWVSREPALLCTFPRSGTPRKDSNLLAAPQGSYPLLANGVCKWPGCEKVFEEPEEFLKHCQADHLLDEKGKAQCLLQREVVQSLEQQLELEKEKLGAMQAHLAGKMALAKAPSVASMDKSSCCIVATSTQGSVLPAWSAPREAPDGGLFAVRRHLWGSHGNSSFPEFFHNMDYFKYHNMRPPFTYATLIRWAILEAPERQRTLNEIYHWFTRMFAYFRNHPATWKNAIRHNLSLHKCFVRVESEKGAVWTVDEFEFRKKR

[3] = target: T1, Foxp3 (endogenous, mouse Treg cells) (mouse (endogenous in Treg cells)); remark: listed apart in the source

IKZF1 (endogenous, human Treg cells) (from UniProt Q13422 1-519)
binding [1]: binds

Ikzf2 (endogenous, mouse Treg cells) (from UniProt P81183 1-526)
binding [2]: binds | binding [3]: binds
